Data as given in the supplement of paper PMC3334620.
Over roughly 33,000 sequences, “E-score (-0.5 to 0.5)” has its median near -0.0014; the highest 2% begin near 0.25. Some of the results follow.

These sequences were tested against T1, Cad1 (UniProt P24813) (assay: PBM E-score (8-mer binding enrichment) (E-score (-0.5 to 0.5)); higher = stronger / more preferred TF binding). Conditions: protein concentration: 100 nM; construct: GST-full length.
T1 sequence: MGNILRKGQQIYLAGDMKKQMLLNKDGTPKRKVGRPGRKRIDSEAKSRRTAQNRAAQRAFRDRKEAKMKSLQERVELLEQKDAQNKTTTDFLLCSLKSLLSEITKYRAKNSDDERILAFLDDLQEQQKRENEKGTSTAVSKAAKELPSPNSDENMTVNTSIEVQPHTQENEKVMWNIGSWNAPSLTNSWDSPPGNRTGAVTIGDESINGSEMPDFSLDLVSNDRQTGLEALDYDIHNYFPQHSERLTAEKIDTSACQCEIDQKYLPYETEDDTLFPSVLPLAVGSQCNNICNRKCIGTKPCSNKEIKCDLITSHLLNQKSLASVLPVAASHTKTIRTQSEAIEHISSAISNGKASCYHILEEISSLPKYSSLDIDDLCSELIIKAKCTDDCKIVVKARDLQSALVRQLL
Method: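 Universal 'all 10-mer' protein binding microarrays (Agilent AMADID 015681) probed with GST-tagged S. cerevisiae TFs (full-length or DBD) made by in vitro transcription/translation (PURExpress), about 100-200 nM. Bound TF was detected with fluorescent anti-GST. Each ungapped 8-mer (which stands for itself and its reverse complement) is scored by the PBM enrichment score (E-score), a modified Wilcoxon-Mann-Whitney statistic from -0.5 to +0.5, computed with the Universal PBM Analysis Suite. Scale: above 0.35 generally sequence-specific binding.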

| Sequence | PBM E-score |
| --- | --- |
| GTTGTAAA | -0.0654 |
| AGGGCAGC | -0.00125 |
| ATGCACAA | 0.0466 |
| AAACATGG | 0.00473 |
| CAATGAGA | -0.13 |
| ACGGTTAT | -0.0865 |
| ACCAGGTA | -0.239 |
| AAATTGGA | 0.238 |
| AACGATTG | 0.0114 |
| AGGTAGTG | 0.0658 |
| CCTTGGAG | 0.0392 |
| ACCGTCCT | -0.0118 |
| GAGTGTGA | 0.028 |
| CGGCCAAC | -0.0328 |
| ATCCCTAA | -0.121 |
| AAAGCCGC | -0.0533 |
| GCAGCGGC | -0.0963 |
| CGGAGGGA | -0.0156 |
| GAGAAACA | 0.181 |
| CCGTTGCG | 0.0552 |
| CACACGTA | -0.193 |
| CCATAATA | 0.00312 |
| CCCTGAGG | -0.2 |
| CAGTGATC | 0.0334 |
| AAAAGGTT | -0.227 |

Reprinted at random: three records from the list, in no set order.

| Sequence | PBM E-score |
| --- | --- |
| CCATAATA | 0.00312 |
| AAAGCCGC | -0.0533 |
| AGGGCAGC | -0.00125 |

Next results.

| Sequence | PBM E-score |
| --- | --- |
| ATTCATCC | 0.0565 |
| AGATAGTC | -0.0777 |
| CGTATTAG | 0.165 |
| TCTAGAGA | -0.267 |
| GGCTGAAA | -0.00366 |
| CTCTCGCC | -0.205 |
| AGATCGAA | 0.0446 |
| GCGGGAAA | 0.144 |
| GAATTACA | 0.172 |
| ATGTCGGA | 0.083 |
| CCCATCGC | -0.0535 |
| GTTTCTTA | 0.0603 |
| CGTGACCC | -0.185 |
| AGTGGCCG | -0.114 |
| AGGATTCC | -0.106 |
| CTAGATGC | 0.0694 |
| CCATCTCC | 0.0554 |
| GGCCGCCA | -0.133 |
| AGCTCTTA | 0.0297 |
| GACTGTGA | 0.163 |
| AGCCCATA | -0.0468 |
| ATGTTATA | 0.126 |
| ATAGGCAA | -0.0672 |
| ACTCGCTC | -0.0958 |
| AGGAACCT | 0.115 |

| Sequence | PBM E-score |
| --- | --- |
| AGTTTAAG | -0.0404 |
| CTGAGACA | 0.00784 |
| TTAAGCAA | -0.0269 |
| GATTAGGA | -0.0959 |
| CTCAGGAA | -0.0567 |
| TAATTCTA | 0.0885 |
| GCGCTCGA | 0.141 |
| CTCCTGGA | -0.149 |
| GCCGGACA | 0.106 |
| ACGTCGGG | -0.269 |
| CCGCGTTA | 0.021 |
| ATCCAGTG | 0.164 |
| CCACTTGC | -0.153 |
| ACCCATCT | -0.00952 |
| CAAGAACA | 0.0216 |
| GGTATGTA | -0.103 |
| ATCTCCGC | -0.0702 |
| GAGATGGA | -0.0539 |
| CGCAAAGC | 0.107 |
| ACGAGGGA | -0.064 |
| CTCCGAAA | 0.12 |
| AAATGAAA | 0.21 |
| AGGCTTAA | 0.00349 |
| CGTCGGAA | 0.127 |
| CGACTCGA | 0.0395 |

As entered above:
AAACATGG | PBM E-score: 0.00473
GAATTACA | PBM E-score: 0.172
GAGTGTGA | PBM E-score: 0.028

(further entries)

| Sequence | PBM E-score |
| --- | --- |
| GCGAAGCC | -0.24 |
| CCGAAAAG | -0.0748 |
| AGGGTCCC | -0.168 |
| ATCCCTGA | 0.0504 |
| CAATATCC | -0.0995 |
| CCGGCTCC | -0.246 |
| AGTGCGGA | 0.166 |
| AGGGCCAC | -0.0783 |
| CTGTCTCA | -0.0231 |
| AAACAGAT | 0.156 |
| AGCTTTGG | -0.0638 |
| ACGTAATG | 0.147 |
| GTTCGACA | 0.201 |
| AAAATCGT | 0.0805 |
| AGATCCAT | -0.0869 |
| CAGAGCGC | -0.107 |
| GTGCCAAC | -0.00784 |
| GGAGAACC | -0.207 |
| AGGCGCGG | -0.053 |
| TAAACTTA | -0.0541 |
| CTGTTTCA | 0.00662 |
| ATGGGAGA | -0.209 |
| ATTGCTTG | 0.0809 |
| GGTAAGGA | -0.0745 |
| CTCTCAAA | 0.0393 |

| Sequence | PBM E-score |
| --- | --- |
| AAGCTGGT | 0.103 |
| TGAAGCCA | -0.166 |
| ATAACAGC | 0.221 |
| CCACGTTC | -0.0106 |
| AAAACAAT | 0.244 |
| CGTCCACC | -0.133 |
| ATCCTTCA | -0.174 |
| GACTTCAC | -0.0269 |
| CATTGGGC | -0.256 |
| GGCTTAAA | 0.00342 |
| GCACTCAC | -0.0802 |
| GCGAGCGC | 0.127 |
| CAGCCGAG | -0.0395 |
| CCATTTCC | -0.00658 |
| AATTAAAT | 0.198 |
| CACGATAC | -0.231 |
| GCGTTTTA | 0.0811 |
| TCACGCCA | 0.0264 |
| GTCCAAGA | -0.236 |
| AATAATAA | 0.305 |
| TATAGGCA | -0.155 |
| TAGTTGAA | 0.15 |
| AGACTCCA | -0.0447 |
| AAGTACCA | 0.0672 |
| AGCATGTG | 0.0189 |

| Sequence | PBM E-score |
| --- | --- |
| AAGGCGGT | -0.0195 |
| AGGCTAGG | -0.274 |
| TTGCACAA | 0.0972 |
| CGATCATC | -0.0744 |
| TACGCGAA | -0.00479 |
| CATGATGA | 0.141 |
| GGATCCAA | 0.121 |
| CCGCTAAA | -0.0442 |
| CCCAGCCC | -0.0263 |
| AAGTATCG | 0.0301 |
| ACCGGTGC | -0.188 |
| AATAGTTC | 0.16 |
| AATAACTC | 0.15 |
| GGAACGTA | 0.00276 |
| CGCGGAAG | -0.00425 |
| GCATTGCC | -0.0184 |
| CCTGGCGA | -0.0952 |
| AGGGCCCC | -0.346 |
| TGAGCGCA | 0.0445 |
| CGCCCAGA | -0.102 |
| ACCGTTTG | 0.0346 |
| AGGGGTCC | -0.276 |
| TAGCTCAA | -0.0608 |
| AAAGTTGC | 0.0259 |
| TACCGTCA | -0.0238 |

| Sequence | PBM E-score |
| --- | --- |
| ATTGTATA | 0.215 |
| TGGCAACA | 0.0346 |
| CGGAGGAA | -0.0518 |
| AGGTCTTG | -0.0382 |
| AAGGGGGA | -0.306 |
| CCTTAGGA | 0.0161 |
| TATTTCAA | 0.309 |
| CAACAGGC | -0.0199 |
| AATCCAGT | 0.118 |
| CGCTGGTA | 0.0577 |
| AACCACCT | 0.0185 |
| AAGCTTGG | -0.125 |
| ACGCCATG | 0.0731 |
| ACCCAAGT | -0.0625 |
| AACTAGTC | -0.14 |
| ATACTGGG | -0.256 |
| AACGATCG | 0.153 |
| AGGAGGAA | -0.218 |
| CTCTTCCC | -0.22 |
| CAGGAACC | -0.0733 |
| AGCGTGAC | 0.0299 |
| ATATCCAT | 0.0512 |
